Laboratory results: PubChem BioAssay AID652243 (Drosophila RNAi Screening Center, 2013)
Assay: 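Knock-downs that decrease or increase androgen receptor reporter signal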 (primary screen). Cell system: Drosophila S2R+ cells. Reagent: long dsRNA against Drosophila genes. Time to read-out: 72 h (48 h, then 24 h hormone). Conditions: synthetic androgen R1881 at 10 nM for 24 h. Measurement: 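Firefly light from an androgen-responsive reporter and Renilla control light per well, raw and unnormalised, for each of two replicates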. Scale: firefly reporter light: higher = more light from androgen-responsive reporter; Renilla control light: higher = more constitutive control signal (cell number, transfection). Rule for the call: 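Across duplicate plates, a knock-down whose log firefly/Renilla ratio shifted a set fold down or up from the GFP/LacZ control mean was a hit; the downward cut appears as both 1.5 and 3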. Meaning of the calls: active = hit: reporter lowered or raised; inactive = no hit.
The deposit covers about 24,000 reagents; this is a random part of those with a known target gene and a result. Over the whole deposit, 246 (1%) were called active. 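Plates not normalised; calls are printed but the firefly/Renilla ratio behind them is not deposited; fold cut for lowering reported inconsistently.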 Raw values vary from plate to plate and are shown uncorrected. Reagents against one gene are numbered here. The record does not give: the amount of reagent.

| predicted target | reagent | firefly reporter light, replicate 1 | firefly reporter light, replicate 2 | Renilla control light, replicate 1 | Renilla control light, replicate 2 | call |
| --- | --- | --- | --- | --- | --- | --- |
| CG6462 (GeneID 38681) | 1 | 1.12e5 | 1.17e5 | 1.32e6 | 1.38e6 | inactive |
| CG6462 (GeneID 38681) | 2 | 1.01e6 | 9.89e5 | 9.40e5 | 9.08e5 | inactive |
| mu2 (GeneID 38257) | 1 | 9.22e5 | 8.81e5 | 1.08e6 | 1.16e6 | inactive |
| mu2 (GeneID 38257) | 2 | 6.71e5 | 6.76e5 | 2.20e6 | 2.06e6 | inactive |
| Lgr3 (GeneID 43098) | 1 | 1.29e5 | 1.91e5 | 1.90e6 | 1.92e6 | inactive |
| Lgr3 (GeneID 43098) | 2 | 1.41e5 | 1.37e5 | 1.84e6 | 1.21e6 | inactive |
| CG1103 (GeneID 40547) | 1 | 1.00e6 | 7.85e5 | 1.26e6 | 1.02e6 | inactive |
| Arpc1 (GeneID 34793) | 1 | 1.30e6 | 9.66e5 | 2.21e6 | 1.37e6 | inactive |
| Arpc1 (GeneID 34793) | 2 | 5.13e5 | 4.36e5 | 9.31e5 | 9.31e5 | inactive |
| Noa36 (GeneID 43384) | 1 | 1.06e5 | 72866 | 7.04e5 | 5.96e5 | inactive |
| Chro (GeneID 40508) | 1 | 25259 | 30577 | 2.15e5 | 2.55e5 | inactive |
| nero (GeneID 43740) | 1 | 70942 | 47807 | 4.71e5 | 3.36e5 | inactive |

Part of the list above in another layout:
predicted target,reagent,"firefly reporter light, replicate 1","firefly reporter light, replicate 2","Renilla control light, replicate 1","Renilla control light, replicate 2",call
Arpc1 (GeneID 34793),2,5.13e5,4.36e5,9.31e5,9.31e5,inactive
Noa36 (GeneID 43384),1,1.06e5,72866,7.04e5,5.96e5,inactive

Further records follow:
| predicted target | reagent | firefly reporter light, replicate 1 | firefly reporter light, replicate 2 | Renilla control light, replicate 1 | Renilla control light, replicate 2 | call |
| --- | --- | --- | --- | --- | --- | --- |
| Cyp6w1 (GeneID 35543) | 1 | 9.94e5 | 8.60e5 | 1.58e6 | 1.52e6 | inactive |
| Liprin-alpha (GeneID 249072) | 1 | 1.23e6 | 1.11e6 | 2.70e6 | 2.23e6 | inactive |
| Liprin-alpha (GeneID 249072) | 2 | 6.49e5 | 5.91e5 | 1.13e6 | 8.83e5 | inactive |
| ppk10 (GeneID 3885617) | 1 | 8.19e5 | 8.48e5 | 1.40e6 | 1.55e6 | inactive |
| CG11279 (GeneID 39486) | 1 | 3.16e5 | 3.26e5 | 2.78e6 | 2.46e6 | inactive |
| bam (GeneID 43038) | 1 | 1.82e5 | 2.17e5 | 2.27e6 | 2.54e6 | inactive |
| bam (GeneID 43038) | 2 | 3.14e5 | 6.51e5 | 1.38e6 | 2.40e6 | inactive |
| CG32815 (GeneID 318224) | 1 | 2.98e5 | 3.28e5 | 3.01e6 | 3.11e6 | inactive |
| CG32815 (GeneID 318224) | 2 | 2.58e5 | 3.59e5 | 3.11e6 | 2.90e6 | inactive |
| Cpr62Ba (GeneID 38239) | 1 | 1.17e5 | 72978 | 1.09e6 | 8.72e5 | inactive |
| CG18528 (GeneID 42906) | 1 | 1.50e5 | 1.85e5 | 2.48e6 | 2.45e6 | inactive |
| CkIIalpha (GeneID 48448) | 1 | 50556 | 1.36e5 | 2.20e6 | 2.38e6 | inactive |
| CkIIalpha (GeneID 48448) | 2 | – | – | – | – | inactive |
